The chains behind the UniProt entries cited, without tags or fusion partners.
UniProt Q00975, whole entry, looked up: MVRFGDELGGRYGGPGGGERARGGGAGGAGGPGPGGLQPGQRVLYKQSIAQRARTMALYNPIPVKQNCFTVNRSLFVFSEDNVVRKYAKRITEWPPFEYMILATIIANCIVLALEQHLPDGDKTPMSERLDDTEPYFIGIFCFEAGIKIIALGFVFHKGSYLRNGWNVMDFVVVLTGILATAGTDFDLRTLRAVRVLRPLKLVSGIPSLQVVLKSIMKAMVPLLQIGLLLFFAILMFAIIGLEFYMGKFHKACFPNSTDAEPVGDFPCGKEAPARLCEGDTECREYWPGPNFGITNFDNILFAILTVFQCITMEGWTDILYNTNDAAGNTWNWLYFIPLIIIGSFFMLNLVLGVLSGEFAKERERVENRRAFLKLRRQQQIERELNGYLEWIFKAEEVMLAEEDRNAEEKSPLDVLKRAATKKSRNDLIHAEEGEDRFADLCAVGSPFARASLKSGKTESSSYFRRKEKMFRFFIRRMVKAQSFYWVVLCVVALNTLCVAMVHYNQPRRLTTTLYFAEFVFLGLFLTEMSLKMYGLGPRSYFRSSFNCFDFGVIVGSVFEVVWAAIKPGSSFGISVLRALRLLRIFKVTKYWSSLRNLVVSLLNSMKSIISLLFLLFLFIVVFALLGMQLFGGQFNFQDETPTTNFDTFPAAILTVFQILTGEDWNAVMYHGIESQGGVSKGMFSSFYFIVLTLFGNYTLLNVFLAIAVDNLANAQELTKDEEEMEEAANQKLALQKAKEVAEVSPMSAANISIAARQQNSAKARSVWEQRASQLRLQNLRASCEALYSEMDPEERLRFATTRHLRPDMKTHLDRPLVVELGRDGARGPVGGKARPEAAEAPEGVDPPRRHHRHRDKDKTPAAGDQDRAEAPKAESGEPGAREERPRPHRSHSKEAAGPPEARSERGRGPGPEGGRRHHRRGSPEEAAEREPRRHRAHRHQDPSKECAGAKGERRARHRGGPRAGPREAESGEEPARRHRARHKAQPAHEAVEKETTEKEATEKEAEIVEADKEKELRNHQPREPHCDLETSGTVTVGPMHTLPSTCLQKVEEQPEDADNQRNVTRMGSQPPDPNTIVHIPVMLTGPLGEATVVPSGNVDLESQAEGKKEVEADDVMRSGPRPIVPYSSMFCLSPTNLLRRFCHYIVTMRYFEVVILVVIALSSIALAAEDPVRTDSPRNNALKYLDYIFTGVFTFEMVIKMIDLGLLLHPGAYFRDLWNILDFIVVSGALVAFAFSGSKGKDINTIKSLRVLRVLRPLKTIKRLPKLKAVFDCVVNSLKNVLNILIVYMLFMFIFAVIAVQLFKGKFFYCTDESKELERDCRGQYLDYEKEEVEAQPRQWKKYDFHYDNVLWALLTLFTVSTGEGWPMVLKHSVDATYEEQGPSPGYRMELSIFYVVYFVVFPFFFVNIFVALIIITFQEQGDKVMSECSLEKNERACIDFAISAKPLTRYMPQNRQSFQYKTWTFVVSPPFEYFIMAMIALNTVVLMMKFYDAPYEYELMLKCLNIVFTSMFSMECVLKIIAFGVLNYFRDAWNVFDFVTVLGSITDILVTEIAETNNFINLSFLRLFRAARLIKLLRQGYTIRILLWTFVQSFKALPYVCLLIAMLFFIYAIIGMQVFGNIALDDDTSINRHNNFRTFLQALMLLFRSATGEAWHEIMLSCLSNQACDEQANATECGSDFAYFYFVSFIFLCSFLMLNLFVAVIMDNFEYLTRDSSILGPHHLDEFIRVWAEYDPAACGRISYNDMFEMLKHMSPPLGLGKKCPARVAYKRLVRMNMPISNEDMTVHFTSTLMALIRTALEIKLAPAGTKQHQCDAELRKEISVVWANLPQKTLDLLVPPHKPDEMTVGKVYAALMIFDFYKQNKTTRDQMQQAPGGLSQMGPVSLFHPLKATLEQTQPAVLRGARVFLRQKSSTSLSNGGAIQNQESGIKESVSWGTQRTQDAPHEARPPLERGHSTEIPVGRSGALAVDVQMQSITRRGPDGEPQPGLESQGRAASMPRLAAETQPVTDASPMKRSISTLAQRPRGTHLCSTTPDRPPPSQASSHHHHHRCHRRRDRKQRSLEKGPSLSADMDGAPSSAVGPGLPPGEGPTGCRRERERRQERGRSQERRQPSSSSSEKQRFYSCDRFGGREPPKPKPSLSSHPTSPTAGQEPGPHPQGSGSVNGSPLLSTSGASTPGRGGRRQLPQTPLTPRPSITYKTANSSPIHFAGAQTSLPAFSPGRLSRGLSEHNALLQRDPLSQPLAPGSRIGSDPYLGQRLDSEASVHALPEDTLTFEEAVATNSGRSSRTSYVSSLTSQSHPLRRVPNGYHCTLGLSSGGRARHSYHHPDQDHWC

The whole screen tested about 290,000 compounds, of which about 570 (0.2%) were called active. The shares of active, inactive and inconclusive entries below differ from those in the screen. Rule as the data show it: active = inhibition mostly above about 51% (no sharp cut-off); inconclusive = no clear call, values can overlap the other calls; inactive = mostly below about 53%.
The compounds below were run against Voltage-dependent N-type calcium channel subunit alpha-1B (Homo sapiens) (UniProt Q00975) (assay: disruptors of CaV2.2 binding to Mint1 – biochemical, HTRF (AID 2073)). Details: HTRF protein-protein interaction, Mint1-CaV2.2; at 20 µM; stronger effect = higher value.
`COC(=O)c1c(NC(=O)CSc2nnnn2-c2ccccc2)sc2c1CCC(C)C2` (stereo not given) was tested, and the inhibition was inconclusive: 59.5%.
In the case of `S=c1[nH]nc(-c2cc3c(s2)-c2ccccc2CC3)o1`, the inhibition is reported as inconclusive: 58.9%.
With `O=C(/C=C/c1ccccc1Cl)NC(=S)Nc1ccccc1C(=O)NC1CCCCC1` the inhibition was inconclusive: 87.8%.
In the case of `COCCN(CCOC)Cc1c(O)ccc2c3c(c(=O)oc12)CCC3`, the inhibition is reported as inconclusive: 63.7%.
With `O=C(Nc1ccc(S(=O)(=O)Nc2nccs2)cc1)c1cccc(N2C(=O)c3ccccc3C2=O)c1` the inhibition was inactive: 49.1%.
In the case of `O=c1cc(O)c2sc(Nc3cccc(C(F)(F)F)c3)nc2[nH]1`, the inhibition is reported as active: 66.6%.
For `Cc1ccc(S(=O)(=O)c2cc3c(=O)n4ccccc4nc3n(Cc3ccco3)c2=N)cc1`, the inhibition was inconclusive: 52.8%.
In the case of `CCn1cc(CNC(=O)c2ccc(Cl)c([N+](=O)[O-])c2)c(C)n1`, the inhibition is reported as inconclusive: 56.3%.
For `COC(=O)c1c(NC(=O)c2ccc(C)c(S(=O)(=O)Nc3ccccc3C)c2)sc2c1CCCC2`, the inhibition was inconclusive: 80.4%.
In the case of `COc1ccc(C)cc1Nc1nc(C)nc2sc(C)cc12`, the inhibition is reported as inconclusive: 69.6%.
With `CCCCCCCOc1ccc(C2(C)NC(=O)NC2=O)cc1` (stereo not given) the inhibition was inconclusive: 60.1%.
`O=C(Oc1coc(CSc2ncccn2)cc1=O)c1cccs1` was tested, and the inhibition was inconclusive: 52%.
In the case of `C=CCSc1nnnn1-c1ccc(OC)cc1`, the inhibition is reported as inconclusive: 65.3%.
For `NC(=O)COC(=O)c1cccc(NS(=O)(=O)/C=C/c2ccccc2)c1`, the inhibition was inconclusive: 68%.
With `CCOc1ccc(N2C(=O)C3=C(C(c4ccc(Cl)cc4)=NCCN3)C2c2cccnc2)cc1` (stereo not given) the inhibition was inconclusive: 52.6%.
`CCN1C(=O)c2cccc3c(NC(=O)c4cccc(N5C(=O)CCC5=O)c4)ccc1c23` was tested, and the inhibition was inconclusive: 77.6%.
In the case of `Cc1nc(N2CCN(c3ccccn3)CC2)c2c(C)c(C(=O)Nc3ccc(F)cc3Cl)sc2n1`, the inhibition is reported as inconclusive: 66.1%.
With `CC(C)OCCCNC(=O)CN1C(=O)/C(=C/c2ccccc2F)Oc2ccccc21` the inhibition was inconclusive: 76.3%.
For `O=C(CSc1nnc(-c2ccncc2)s1)Nc1ccc(Cl)c(C(=O)O)c1`, the inhibition was inconclusive: 83.5%.
For `COc1ccc(C2=NN(C(=O)CN3CCCCC3)C(c3ccc(OC)cc3)C2)cc1` (stereo not given), the inhibition was inconclusive: 72.6%.
In the case of `CCOc1ccccc1N(CC(=O)Nc1ccc(C)cc1)S(C)(=O)=O`, the inhibition is reported as inconclusive: 77.3%.
For `Cc1cc(C)c(S(=O)(=O)c2ccccc2F)c(=O)[nH]1`, the inhibition was inconclusive: 51.2%.
In the case of `Cc1cccc(NC(=O)c2c(F)c(F)c(F)c(F)c2F)c1`, the inhibition is reported as inconclusive: 61.1%.
For `Cc1ccc(CN2CCCN(Cc3cc(C)ccc3C)S2(=O)=O)cc1`, the inhibition was inconclusive: 65.1%.
In the case of `CN1CCN(C(CC(=O)Nc2cccc(O)c2)C(=O)O)CC1` (stereo not given), the inhibition is reported as inactive: 0.5%.
`O=C(CN1C(=O)COc2ccccc21)NCCCN1CCN(c2ccccc2F)CC1` was tested, and the inhibition was inconclusive: 52.4%.
`Cc1ccc2[nH]c(=O)c(CNC(C)(C)C)cc2c1` was tested, and the inhibition was inconclusive: 56.2%.
In the case of `Cc1ccc(C(=O)Nc2ccc3nc(C)sc3c2)s1`, the inhibition is reported as inconclusive: 68.3%.
In the case of `CCC(C)NCC(=O)Nc1cc(S(=O)(=O)N(CC)c2ccccc2)ccc1Cl` (stereo not given), the inhibition is reported as inconclusive: 62.8%.
`Cn1cc(CN2CCN(c3ncccn3)CC2)c(-c2cccc(Cl)c2)n1` was tested, and the inhibition was inconclusive: 59.3%.
With `C/C(=N\NC(N)=S)C1(C)CCCCC1` the inhibition was inactive: 1.7%.
With `CNC(=O)Cc1nc2ccccc2n1CC(=O)Nc1cc(C)cc(C)c1` the inhibition was inconclusive: 87.4%.
With `COCCCn1nnnc1SCC(=O)N1CCN(C(=O)c2ccco2)CC1` the inhibition was inconclusive: 55.9%.
With `Cc1cccc(C(=O)NC2CCN(S(=O)(=O)c3ccccc3)CC2)c1` the inhibition was inconclusive: 57.5%.
`CCN1CCN(S(=O)(=O)c2ccc3c(c2)OCCO3)CC1` was tested, and the inhibition was inconclusive: 51.8%.
In the case of `CCCCN(C)CCNC(=O)c1cc2c(-c3cccc(OC)c3)nn(C)c2s1`, the inhibition is reported as inconclusive: 61.2%.
`CCOc1ccc(NC(=S)NCCCN2CCOCC2)cc1` was tested, and the inhibition was inconclusive: 50.7%.
In the case of `Cc1cc(C(=O)COc2cccnc2[N+](=O)[O-])c(C)n1Cc1ccco1`, the inhibition is reported as active: 78.9%.
With `CC1CN(C(=O)CN(C)S(=O)(=O)c2ccc3ccccc3c2)CC(C)O1` (stereo not given) the inhibition was inconclusive: 64.4%.
`Cc1ccc(OCC(=O)NCCN2CCCC2)cc1` was tested, and the inhibition was inconclusive: 72.1%.
With `CCC(C(=O)NC1CC1)n1nc(C)c2c(C)n(-c3ccc(C)cc3)nc2c1=O` (stereo not given) the inhibition was inactive: 9.6%.
For `OC1(c2cccc(C(F)(F)F)c2)CCN(Cc2nc(-c3cnccn3)no2)CC1`, the inhibition was inconclusive: 74.4%.
In the case of `CN1CCN(c2nnc(-c3ccc(Cl)cc3)c3ccccc23)CC1`, the inhibition is reported as inconclusive: 62.2%.
With `CCC(=NCCc1ccc(OC)c(OC)c1)C1=C(O)CC(C)(C)CC1=O` the inhibition was inconclusive: 75.9%.
`O=c1cc(/N=C/c2coc3cc(Br)ccc3c2=O)[nH]c(=S)[nH]1` was tested, and the inhibition was inactive: 14.4%.
In the case of `O=C(Cc1cccc2ccccc12)Nc1ccc(-c2cc3ccccc3oc2=O)cc1`, the inhibition is reported as inconclusive: 66%.
With `CSc1nnc(COc2ccc(C)cc2)n1N` the inhibition was inconclusive: 61.7%.
For `COc1ccccc1CC(=O)Nc1ccon1`, the inhibition was inconclusive: 70.5%.
`O=C(N/N=C/c1cccc([N+](=O)[O-])c1)c1cc(-c2ccc3c(c2)OCO3)n[nH]1` was tested, and the inhibition was inactive: 3.3%.
For `COc1ccc(-c2ccnc3nc(/N=C/N(C)C)nn23)cc1`, the inhibition was inconclusive: 55.7%.
`O=C(NC1CCN(C(=O)c2cccs2)CC1)c1ccccc1` was tested, and the inhibition was inconclusive: 92.6%.
In the case of `CCN(CC)CC#CCC(O)(c1ccccc1)c1ccc(Br)cc1` (stereo not given), the inhibition is reported as inconclusive: 55.8%.
For `CCc1ccc2nc(NC(=O)c3ccc(N4C(=O)CCC4=O)cc3)sc2c1`, the inhibition was inactive: 32.1%.
In the case of `COc1ccc(-n2nnc3c(=O)n(CC(=O)Nc4cc(C)on4)cnc32)cc1`, the inhibition is reported as inconclusive: 60.7%.
With `CCn1ccc(C(=O)Nc2ccccc2Cl)n1` the inhibition was inconclusive: 51.9%.
With `COc1cc(/C=N/n2cnnc2)ccc1OC(=O)c1ccco1` the inhibition was inactive: 1.6%.
With `Cc1nnc(NC(=O)CSc2nc(C(C)C)nc3ccccc23)s1` the inhibition was inconclusive: 60.2%.
`Cc1ccnc2nc(C(=O)OCC(=O)c3c[nH]c4ccccc34)nn12` was tested, and the inhibition was inconclusive: 52%.
For `O=C(CC1(O)C(=O)N(C/C=C/c2ccccc2)c2ccccc21)c1ccccn1` (stereo not given), the inhibition was inactive: 0%.
In the case of `Cc1onc(-c2ccccc2)c1C(=O)OCC(=O)c1ccccc1`, the inhibition is reported as inconclusive: 76.2%.
`Cc1cccc(NS(=O)(=O)c2cc(C(=O)N3CCN(C)CC3)ccc2C)c1` was tested, and the inhibition was inconclusive: 52.4%.
`CCc1ccc(Oc2coc3cc(O)ccc3c2=O)cc1` was tested, and the inhibition was inconclusive: 50.6%.
`CCc1nnc(NC(=O)C2CC(=O)N(c3ccc4c(c3)OCCO4)C2)s1` (stereo not given) was tested, and the inhibition was inactive: 3%.
With `C=CCNc1oc(-c2cccc3ccccc23)nc1C#N` the inhibition was inconclusive: 52.7%.
For `NS(=O)(=O)c1ccc(NC(=O)CSC2=NC(=O)C(c3ccccc3)C(=O)N2)cc1` (stereo not given), the inhibition was inconclusive: 98.3%.
With `OCCC1CN(Cc2ccccc2-c2ccco2)CCN1C1CCCC1` (stereo not given) the inhibition was inconclusive: 53.7%.
With `Cc1nc(-n2[nH]c3c(c2=O)CCCC3)[nH]c(=O)c1Cc1ccccc1` the inhibition was inconclusive: 51.5%.
For `CCOC(=O)c1c(N2C(=O)C3CC(C)=C(C)CC3C2=O)sc(C)c1C` (stereo not given), the inhibition was inactive: -2.7%.
For `C/C(=N/NC(=O)c1ccco1)c1cccnc1`, the inhibition was inconclusive: 86.9%.
With `COc1ccc(C2CC(c3ccccc3)=NN2c2ccc(S(N)(=O)=O)cc2)cc1OC` (stereo not given) the inhibition was inconclusive: 63.1%.
In the case of `O=C(CN1C(=O)/C(=C2\SC(=S)N(C3CCS(=O)(=O)C3)C2=O)c2ccccc21)Nc1ccccc1` (stereo not given), the inhibition is reported as inconclusive: 56.8%.
For `CCN1CCCc2cc(CN(CCN3CCOCC3)C(=S)Nc3cccc(Cl)c3)ccc21`, the inhibition was inconclusive: 51.3%.
In the case of `CN(C)C(=O)COC(=O)c1ccc(S(=O)(=O)NCc2ccco2)cc1`, the inhibition is reported as inconclusive: 58%.
With `O=C(NCCCO)c1ccc2[nH]c3ccccc3c2c1` the inhibition was inconclusive: 63.6%.
`CC(=O)/C(N=Nc1ccc2c(c1)OCO2)=C(\C)O` was tested, and the inhibition was inconclusive: 55%.
In the case of `Cn1nc(C(=O)Nc2ccc(Cl)cc2)cc1C(=O)Nc1ccc(Cl)cc1`, the inhibition is reported as inconclusive: 55.2%.
For `CC(Oc1ccc2c(-c3ccccc3)cc(=O)oc2c1)C(=O)NCCCN1CCOCC1` (stereo not given), the inhibition was inconclusive: 58.3%.
In the case of `O=C(/C=C/c1ccco1)c1ccc(NC(=O)C23CC4CC(CC(C4)C2)C3)cc1`, the inhibition is reported as active: 67.9%.
With `Cc1nnc(NC(=O)CCS(=O)(=O)c2ccccc2)s1` the inhibition was inconclusive: 70.4%.
In the case of `CNS(=O)(=O)c1ccc2c3c(cccc13)C(=O)N2C`, the inhibition is reported as inconclusive: 53.2%.
For `CCN(C1CCCCC1)S(=O)(=O)c1ccc(S(=O)(=O)NCc2ccncc2)cc1`, the inhibition was inconclusive: 64.2%.
With `COc1ccccc1CNC(=O)c1csc2c1CCCC2` the inhibition was inconclusive: 57%.
For `CN(CCC#N)C(=O)c1ccc(CNS(=O)(=O)c2ccc(F)cc2)cc1`, the inhibition was inconclusive: 69.5%.
For `O=C(NNc1ccccc1)Nc1ccccc1F`, the inhibition was inactive: -15.6%.
With `O=C1CC(N2CCC(c3nc4ccccc4[nH]3)CC2)C(=O)N1c1ccccc1F` (stereo not given) the inhibition was inconclusive: 55.7%.
In the case of `CC1(C)CC(=O)C2=C(C1)c1c(ccc3ccccc13)NC2c1ccc(OCC(=O)O)cc1` (stereo not given), the inhibition is reported as inconclusive: 50.7%.
In the case of `CC(C(=O)O)N1C(=O)CSC1=S` (stereo not given), the inhibition is reported as inconclusive: 61.5%.
In the case of `O=C(Nc1ccc(-c2nc3ccccc3o2)cc1)c1ccc2c(c1)OCO2`, the inhibition is reported as active: 66.2%.
In the case of `CCOc1ccc(-c2nnc(N)o2)cc1`, the inhibition is reported as inconclusive: 89.1%.
`O=C(COC(=O)c1ccc(Cl)c(S(=O)(=O)N2CCCC2)c1)NC1CCCC1` was tested, and the inhibition was inconclusive: 84.8%.

From PubChem BioAssay AID2073 (Sanford-Burnham Center for Chemical Genomics, 2009)
